Data published in patent publication US20090022806A1, “Nanoparticle and polymer formulations for thyroid hormone analogs, antagonists and formulations and uses thereof” (priority 2006, published 2009).

System: phosphorylated ERK1/2 in ECV304 endothelial cells
Assay: MAPK (ERK1/2) activation in ECV304 cells, nuclear pERK1/2 immunoblot
Assay type: cell-based
Details: PD 98059 30 μmol/L or CGP41251 100 nmol/L for 30 minutes before 10^−7 M T4
Experimental: ECV304 endothelial cells were cultured in M199 medium with 0.25% hormone-depleted serum 13 for 2 days. […] Nuclear fractions were pre-pared from all samples by our method reported previously, the proteins separated by polyacrylamide gel electrophoresis, and transferred to membranes for immunoblotting with antibody to phosphorylated ERK 1/2.

In the case of `CO[C@@H]1[C@H](N(C)C(=O)c2ccccc2)C[C@H]2O[C@]1(C)n1c3ccccc3c3c4c(c5c6ccccc6n2c5c31)C(=O)NC4` [CGP41251], the “inhibition of T4-induced ERK1/2 activation” value is reported as “blocked by both inhibitors”.
